Source: article PMC4159269
No constants are given. Whether binding was seen depends on the method and setting. Binding seen in cells or lysates may run through a third protein. Some binding calls cover weakened binding; strength is not graded here. Tags and fused reporters may be left off the sequences shown.

Chains of the proteins cited; added tags and fusions are not shown.
UniProt Q9H6Z9: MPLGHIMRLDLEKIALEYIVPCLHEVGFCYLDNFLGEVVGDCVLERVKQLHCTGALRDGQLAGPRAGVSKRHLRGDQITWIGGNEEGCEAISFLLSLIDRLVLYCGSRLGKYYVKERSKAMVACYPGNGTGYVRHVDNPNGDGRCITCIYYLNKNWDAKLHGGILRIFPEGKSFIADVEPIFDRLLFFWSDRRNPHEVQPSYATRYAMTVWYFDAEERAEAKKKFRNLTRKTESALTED

T1: FLAG-Siah2 SBD (substrate binding domain) (human) (UniProt O43255)
T1 sequence: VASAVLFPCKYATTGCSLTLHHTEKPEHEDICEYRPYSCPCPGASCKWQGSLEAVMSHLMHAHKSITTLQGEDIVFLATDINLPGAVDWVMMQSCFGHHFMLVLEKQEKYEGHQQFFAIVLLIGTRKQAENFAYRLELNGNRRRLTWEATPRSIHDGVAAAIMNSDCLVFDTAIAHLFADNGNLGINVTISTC

T2: full length FLAG-Siah2 (human) (UniProt O43255)
T2 sequence: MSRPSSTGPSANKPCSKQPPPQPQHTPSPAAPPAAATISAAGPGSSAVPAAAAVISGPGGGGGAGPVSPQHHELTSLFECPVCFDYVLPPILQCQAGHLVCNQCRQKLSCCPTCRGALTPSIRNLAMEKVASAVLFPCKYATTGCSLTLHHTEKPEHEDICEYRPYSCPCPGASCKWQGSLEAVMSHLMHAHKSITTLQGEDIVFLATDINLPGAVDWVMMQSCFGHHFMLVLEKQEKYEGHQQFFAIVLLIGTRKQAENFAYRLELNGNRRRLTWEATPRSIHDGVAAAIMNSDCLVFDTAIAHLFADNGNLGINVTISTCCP

T3: GST-Siah2 SBD (residues 130-322) (human) (UniProt O43255)
T3 sequence: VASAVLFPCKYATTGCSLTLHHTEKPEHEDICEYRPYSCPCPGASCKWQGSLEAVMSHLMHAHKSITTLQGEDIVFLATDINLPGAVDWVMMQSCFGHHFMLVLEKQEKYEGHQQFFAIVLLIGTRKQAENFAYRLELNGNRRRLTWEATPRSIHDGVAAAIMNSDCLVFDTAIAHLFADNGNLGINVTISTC


Assays:
[1] = molecular target: T1, FLAG-Siah2 SBD (substrate binding domain) (human); test: co-IP; HEK293T co-transfected with FLAG-Siah construct and HA-PHD3; lysate on anti-FLAG M2 agarose beads, 4°C 1 hour, washed with NP40 lysis buffer; blot with anti-HA; densitometry as percentage of WT Siah2 SBD for Fig. 7c
[2] = molecular target: T2, full length FLAG-Siah2 (human); test: as above
[3] = molecular target: T3, GST-Siah2 SBD (residues 130-322) (human); test: pull-down; GST-Siah2 SBD on glutathione sepharose beads incubated with lysate of HEK293T cells transfected with HA-PHD3, 1 hour at 4°C, 50 mM Tris-HCl pH 8, 150 mM NaCl, 1 mM DTT, 5% glycerol, 0.1% Triton X-100; blot with anti-HA; only the target purified
[4] = molecular target: HA-PHD3 (prolyl hydroxylase 3) (human) (UniProt Q9H6Z9); test: co-IP; HEK293T co-transfected with FLAG-Siah1 construct and HA-PHD3; HA immunoprecipitation of lysate; blot with anti-FLAG

binding [1] | binding [2] | binding [3] | binding [4] | Molecule
binds | binds | binds | – | HA-PHD3 (prolyl hydroxylase 3) (from UniProt Q9H6Z9 1-239)
– | – | – | no binding | full length FLAG-Siah1 (protein, UniProt Q8IUQ4 1-282) MSRQTATALPTGTSKCPPSQRVPALTGTTASNNDLASLFECPVCFDYVLPPILQCQSGHLVCSNCRPKLTCCPTCRGPLGSIRNLAMEKVANSVLFPCKYASSGCEITLPHTEKADHEELCEFRPYSCPCPGASCKWQGSLDAVMPHLMHQHKSITTLQGEDIVFLATDINLPGAVDWVMMQSCFGFHFMLVLEKQEKYDGHQQFFAIVQLIGTRKQAENFAYRLELNGHRRRLTWEATPRSIHEGIATAIMNSDCLVFDTSIAQLFAENGNLGINVTISMC
